For 1 sequence, binding signal (% of aspB3-Pincl + 5 mM Asp) results are on record in PMC2894021, “Transcriptional control by two leucine-responsive regulatory proteins in Halobacterium salinarum R1” (BMC Molecular Biology, 2010).

For this series, the target named is T1, LrpA1 (Halobacterium salinarum R1) (UniProt B0R4X4).
T1 sequence (looked up): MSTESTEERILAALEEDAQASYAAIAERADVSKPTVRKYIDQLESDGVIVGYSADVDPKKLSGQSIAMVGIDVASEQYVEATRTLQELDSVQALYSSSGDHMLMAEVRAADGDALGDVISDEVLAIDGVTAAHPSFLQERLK
Nature of the series: DNA-affinity chromatography (pull-down), SDS-PAGE densitometry. Conditions: no amino acid (aspartate experiment); CFE buffer: 3 M KCl, 1 M NaCl, 5 mM MgCl2, 10 mM HEPES pH 7.1; room temperature, 4 h; 2 nmol LrpA1, 61 pmol biotinylated DNA; elution with 1% SDS; recombinant protein; residues 1-142; protein details: C-terminal His6 (pET26b, NdeI/XhoI); label: biotin (reverse primer), on streptavidin sepharose; probe letters rebuilt from the primers and the genome.

The exact form of at least one protein or probe is not confirmed. The direction of at least one scale is not stated here. Tags and fusion partners may be left off the protein sequences shown.

With “ATCGCGCTTGAACGTCTGCATACGTCCGCTACGCACCAGGCGCGCAAAACTTCAGGGGGTTCGGGACCCGCGGGTTGTGCCGTGATAGCACACGCGTCCCGCAGGAACGATTATGAGGGATGGCCGCGATCCTGCTGGCATGCCTTCGGAGCGCGCGGCTGCGGTCACGCCGTTCGCCGCGATGGATGTCCTCGAACGCGCCGCCGAC (double strand) [aspB3-Pincl]”, the binding signal (% of aspB3-Pincl + 5 mM Asp) came to 34.
